The values that follow come from paper PMC12670160, “A drug-repurposing screen of FDA- and EMA-approved drugs identifies two NF-κB inhibitors active against eumycetoma” (Journal of Antimicrobial Chemotherapy, 2025).

Each structure is given as a SMILES string. Counter-ions that a name gives are not always drawn. Hit rate of the full screen: of about 5,300 compounds, about 130 (2.5%) showed an effect of 50% or more. The list shows a part of the results. Peptide text beside a SMILES is read from it.

In the experiment the test system is M. mycetomatis strain mm55. Conditions: primary screen, metabolic activity vs growth control; 96 h, 2 µM; inhibitor.
As for `O=C(NCCCCCCNC(=O)ON=C1CCCCC1)ON=C1CCCCC1` [ONC0003002, rhc80267], the “% viability” value was 85.14%. Regarding `Nc1ncnc2nc[nH]c12` [ONC0003170, adenine], the “% viability” value came out at 115.9%. Turning to `Nc1nc(/C(=C/CC(=O)O)C(=O)N[C@@H]2C(=O)N3C(C(=O)O)=CCS[C@H]23)cs1` [ONC0001312, ceftibuten dihydrate], the “% viability” value stood at 75.54%. Consider `N#Cc1cccc(-c2nc(-c3cccnc3)no2)c1` [ONC0003578, ns9283], for which the “% viability” value is 116.1%. In the case of `CCCC[C@H](NC(=O)[C@@H]1[C@@H]2[C@H](CN1C(=O)[C@@H](NC(=O)NC1(CS(=O)(=O)C(C)(C)C)CCCCC1)C(C)(C)C)C2(C)C)C(=O)C(=O)NC1CC1` [ONC0000734, narlaprevir], the “% viability” value came out at 68.03%. For `NCCCS(=O)(=O)O` [ONC0000618, tramiprosate], the “% viability” value is reported as 89.13%. In the case of `O=C(O)/C(Cc1ccccc1[N+](=O)[O-])=N/Nc1nc(-c2ccc(Cl)c(Cl)c2)cs1` [ONC0005147, 4egi1] it was 73.1%; in that of `OCCN1CCN(CC/C=C2/c3ccccc3Sc3ccc(Cl)cc32)CC1` [ONC0002933, zuclopenthixol], 62.33%; in that of `COc1ncc(-c2ccc3c(Nc4cc(Oc5cc(F)cc(F)c5)cc(C(=O)O)c4)c(S(=O)(=O)NC4CC4)cnc3c2)c(OC)n1` [ONC0003006, gsk2837808a], 114.3%. In the case of `CN1c2ccccc2C(=O)N2CCc3c([nH]c4ccccc34)C21` (stereo not drawn) [ONC0004635, evodiamine isoevodiamine], the “% viability” value stood at 83.5%.

Turning to `Cc1c(S(=O)(=O)O)oc2c1C(=O)C(=O)c1c-2ccc2c1CCCC2(C)C` [ONC0003377, sodiumtanshinoneiiasulfonate], the “% viability” value is 55.5%.

As to `O=C(Nc1ccc(CN2CCOCC2)cc1)c1ccc(-c2cccc(Cl)c2)o1` [ONC0004432, cid2011756], the “% viability” value was 129.3%. As for `CN1CCC(=C2c3ccccc3CCn3c(C=O)cnc32)CC1` [ONC0001247, alcaftadine], the “% viability” value is 70.43%. Take `O=C(c1c(O)nc2cc(Cl)ccc2c1O)C1CC1` [ONC0001535, l701252]: the “% viability” value is 138.4%. For the compound `CO/N=C(/C(=O)NC1C(=O)N2C(C(=O)O)=C(C[N+]3(C)CCCC3)CSC12)c1csc(N)n1` (stereo not drawn) [ONC0000506, cefepime hydrochloride], the “% viability” value is listed as 66.95%. In the case of `CN(C)CCOC(=O)C(c1ccccc1)C1(O)CCCC1` (stereo not drawn) [ONC0000325, cyclopentolate hydrochloride] it was 84.51%; in that of `CCc1cc(Cl)c(OC)c(C(=O)NC[C@@H]2CCCN2CC)c1O` [ONC0001424, eticlopride], 68.41%; in that of `C[C@H](N[C@@H](CCc1ccccc1)C(=O)O)C(=O)N1Cc2ccccc2C[C@H]1C(=O)O` [ONC0003902, quinaprilat], 69.09%. Consider `Nc1ccc(/N=N/c2ccccc2)c(N)n1` [ONC0000525, phenazopyridine hydrochloride], for which the “% viability” value turned out to be 72.77%. Regarding `O=C(O)C(=O)c1cn(Cc2ccccc2)c2ccc(-c3ccc(OC(F)(F)F)cc3)cc12` [ONC0001812, tiplaxtinin], the “% viability” value amounted to 83.56%. `NS(=O)(=O)c1nn2cc(-c3ccccc3)nc2s1` [ONC0002993, aeg3482]: the “% viability” value stood at 108%.

`C[C@]12CC[C@H](O)CC1=CC[C@@H]1[C@@H]2CC[C@]2(C)C(c3cccnc3)=CC[C@@H]12` [ONC0004582, abiraterone cb7598]: the “% viability” value turned out to be 96.97%.

For `COc1ccc(CCC(=O)c2c(O)cc(O[C@@H]3O[C@H](CO)[C@@H](O)[C@H](O)[C@H]3O[C@@H]3O[C@@H](C)[C@H](O)[C@@H](O)[C@H]3O)cc2O)cc1O` [ONC0004619, neohesperidin dihydrochalcone nhdc], the “% viability” value came to 85.5%. Consider `CC(C)(C)CC(C)(C)c1ccc(OCCOCC[N+](C)(C)Cc2ccccc2)cc1` [ONC0003268, benzethonium chloride], for which the “% viability” value was 86.04%.

For `CN1[C@@H]2CC[C@H]1C[C@@H](OC(=O)C(O)c1ccccc1)C2` (stereo partly drawn) [ONC0005193, homatropine bromide], the “% viability” value is recorded as 73.37%.

Turning to `Cn1nnc2c(C(N)=O)ncn2c1=O` [ONC0004139, temozolomide], the “% viability” value worked out at 66.38%. In the case of `CCOC(=O)C(C)Oc1cccc2c(=O)n(CC(=O)Nc3ccc4c(c3)OCCO4)ccc12` (stereo not drawn) [ONC0002590, sid7969543], the “% viability” value is listed as 95.64%. As to `CC(C)(C)c1cc(C(C)(C)C)c2c(c1)C(O)(C(F)(F)F)C(=O)O2` (stereo not drawn) [ONC0001539, racbhff], the “% viability” value is 123.7%. In the case of `O=[N+]([O-])c1cn2c(n1)OC[C@@H](OCc1ccc(OC(F)(F)F)cc1)C2` [ONC0004906, pa824], the “% viability” value turned out to be 123%.

As for `C=C1C(=O)O[C@H]2[C@H]1CC/C(C)=C/CC[C@@]1(C)O[C@@H]21` [ONC0001468, parthenolide], the “% viability” value is 67.75%. With `O=C(O)COc1ccc(C(=O)c2cccs2)c(Cl)c1Cl` [ONC0005562, tienilicacid] the figure was 90.07%. With `CO[C@H]1C[C@H](O[C@H]2CC[C@@]3(C)[C@H](CC[C@@H]4[C@@H]3CC[C@]3(C)[C@@H](C5=CC(=O)OC5)[C@@H](OC(C)=O)C[C@]43O)C2)O[C@@H](C)[C@@H]1O` [ONC0000896, oleandrin] the figure was 70.17%; with `COc1ccc(CCC(=O)Nc2nc3ccc(Cl)cc3s2)cc1OC` [ONC0005171, ky02111], 58.49%. Take `COc1ccc(-c2cc3nccn3c(Nc3ncccc3C(N)=O)n2)cc1OC` [ONC0000957, bay 613606 dihydrochloride]: the “% viability” value is 65.94%. Turning to `CCCCOc1ccc(C(=O)CCN2CCCCC2)cc1` [ONC0001893, dyclonine hydrochloride], the “% viability” value is 83.01%.

In the case of `C(#CCN1CCCC1)CN1CCCC1` [ONC0002338, tremorine], the “% viability” value was determined as 70.93%.

As for `C=C1CC[C@H](O)C/C1=C/C=C1\CCC[C@]2(C)[C@@H]([C@H](C)/C=C/[C@H](C)C(C)C)CC[C@@H]12` [ONC0000692, ergocalciferol], the “% viability” value was 131.4%. With `NC[C@H]1O[C@H](O[C@H]2C(O[C@@H]3O[C@H](CO)[C@@H](O)[C@H]3O)[C@@H](O)[C@H](N)C[C@@H]2N)[C@H](N)[C@@H](O)[C@@H]1O` (stereo partly drawn) [ONC0002301, ribostamycin sulfate], the “% viability” value is reported as 111.7%. Consider `Nc1nc(N)c2nc(-c3ccccc3)c(N)nc2n1` [ONC0003185, triamterene], for which the “% viability” value is recorded as 100.4%. `OC(Cc1ccncc1)C(Cl)(Cl)Cl` (stereo not drawn) [ONC0002727, petcm]: the “% viability” value is on record as 75.56%. With `CCCc1c(OCCCOc2ccc(OCC(=O)O)cc2)ccc(CC=O)c1O` [ONC0000202, l165041] the figure was 106.2%; with `CS(=O)(=O)Nc1ccc(Cc2noc(-c3ccc4[nH]cc(CCN)c4c3)n2)cc1` [ONC0000195, l694247], 90.61%; with `Cc1ccc(C(=O)N(CCCN)[C@@H](c2oc3cc(Cl)ccc3c(=O)c2Cc2ccccc2)C(C)C)cc1` [ONC0000201, sb743921], 74.97%. In the case of `Cc1cccc(C)c1NC(=O)CN1CCCC1=O` [ONC0004080, nefiracetam] it was 87.23%; in that of `CC(C)(C)NC(=O)[C@H]1CC[C@H]2[C@@H]3CC[C@H]4NC(=O)C=C[C@]4(C)[C@H]3CC[C@]12C` [ONC0005580, finasteride], 64.51%. In the case of `Cc1ccc(C(=O)Cn2c3c(sc2=N)CCCC3)cc1` [ONC0000087, pifithrinalpha], the “% viability” value worked out at 88.89%. With `C=CC[N+]1([C@H]2C[C@H]3[C@@H]4CC[C@H]5C[C@H](O)[C@@H](N6CCOCC6)C[C@]5(C)[C@H]4CC[C@]3(C)[C@H]2OC(C)=O)CCCC1` [ONC0002413, rocuronium bromide] the figure was 103.6%; with `C[C@H](O)[C@H](O)[C@H]1CNc2nc(N)[nH]c(=O)c2N1` [ONC0003252, sapropterin], 92.95%. With `O=c1ccn([C@@H]2O[C@H](COP(=O)(O)OP(=O)(O)OP(=O)(O)O)C(O)C2O)c(=O)[nH]1` (stereo partly drawn) [ONC0002020, uridine5triphosphate3na] the figure was 73.27%.

As to `Nc1nc2c(sc(=O)n2[C@@H]2O[C@H](CO)[C@@H](O)[C@H]2O)c(=O)[nH]1` [ONC0002890, 5amino3dribofuranosylthiazolo45dpyrimidin273h6hdione 7thia8oxoguanosine], the “% viability” value is given as 143.9%. On to `CCN1CCN(c2ccc(C(C)(C)NC(=O)c3cc4[nH]c5ccccc5c(=O)c4cc3F)cn2)CC1` [ONC0002677, bms566419], for which the “% viability” value worked out at 74.64%.

For the compound `CC(C)C(=O)c1c(C(C)C)nn2ccccc12` [ONC0001478, ibudilast], the “% viability” value is 65.78%. As for `CCS(=O)(=O)N1CCN(c2ccc(Nc3ncc(C(N)=O)c(NC4CC4)n3)cc2)CC1` [ONC0001809, cerdulatinib], the “% viability” value is on record as 122.7%. `Cc1ccc(C)c(C(O)CNC(C)C)c1` (stereo not drawn) [ONC0003752, benzenemethanol25dimethyl1methylethylaminomethyl]: the “% viability” value was found to be 83.44%.

Take `FC(F)(F)c1ccccc1-c1cc(C(F)(F)F)c2[nH]c(C3=NOC4(CCCCC4)C3)nc2c1` [ONC0003118, tci2014]: the “% viability” value is 71.9%. For `CC(C)CC(NC(=O)C1CCCN1)C(=O)NCC(N)=O` (stereo not drawn) [ONC0002964, prolylleucylglycinamide] (H-Pro-Leu-Gly-NH2; configuration not given here), the “% viability” value stood at 144.3%. Take `Cn1c(N2CCCCS2(=O)=O)nc(C(=O)NCc2ccc(F)cc2)c(O)c1=O` [ONC0004672, bms707035]: the “% viability” value worked out at 106%.
